PubChem BioAssay AID652272 – Drosophila RNAi Screening Center, 2013

Assay: 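Finding fly genes that regulate Hedgehog signal transduction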 (primary screen)
System: Drosophila clone 8 (Cl8) cells
Reagents: long dsRNA against Drosophila genes
Read-out: 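Plate reader light from a firefly reporter under a ptc promoter fragment that responds to Hedgehog, with Renilla light as transfection reference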
Reading the numbers: firefly Hh reporter signal: higher = more ptc reporter light; Renilla reference signal: higher = more Renilla control light
Active means: 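Called a hit if the two-replicate mean z-score lies below -2 or above +3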
Calls: active = hit: reporter lowered or raised; inactive = not a hit
The deposit covers about 21,000 reagents; below is an unselected part of those with a known target gene and a result. In the full data, 503 (2.4%) got an active call. 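Raw plate light values, not normalised; calls rest on replicate z-scores that were not deposited; hits include reporter decreases as well as increases.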 Entries without a mark were called inactive. The numbers tell different reagents against one gene apart. Names joined by + are all predicted targets of the reagent. The record does not give: the amount of reagent, the time to read-out.

predicted target | reagent no. | firefly Hh reporter signal, replicate 1 | firefly Hh reporter signal, replicate 2 | firefly Hh reporter signal, replicate 3 | Renilla reference signal, replicate 1 | Renilla reference signal, replicate 2
Irk2 (Inwardly rectifying potassium channel 2) | 1 | 96613 | 91857 | – | 4899 | 4338
CG9394 | 1 | 1.40e5 | 54428 | – | 3697 | 5602
Panx (Panoramix) | 1 | 88858 | 50919 | – | 2381 | 4490
CG8757 | 1 | 53250 | 34512 | 41322 | 3509 | 2872
AOX1 (Aldehyde oxidase 1) | 1 | 1.73e5 | 74528 | – | 6054 | 979
Sry-beta (Serendipity beta) | 1 | 71335 (active) | 57110 | – | 1117 | 954
HPS1 (Hermansky-Pudlak Syndrome 1) | 1 | 94710 | 65188 | – | 2614 | 2244
Tsp42Eb + CG30160 | 1 | 1.48e5 | 2.41e5 | – | 3595 | 9850
Tsp42Eb + CG30160 | 2 | 1.01e5 | 64586 | – | 2617 | 6347
loqs (loquacious) | 1 | 72264 | 52772 | – | 2370 | 5620
CG15147 | 1 | 1.20e5 | 6.65e5 | 78352 | 3219 | 39405
CG15147 | 2 | 1.02e5 | 49286 | – | 2579 | 4501
Prps (Phosphoribosyl pyrophosphate synthetase) | 1 | 1.15e5 | 2.49e5 | – | 2689 | 9290
Prps (Phosphoribosyl pyrophosphate synthetase) | 2 | 24427 | 59828 | 77153 | 4648 | 4538
Prps (Phosphoribosyl pyrophosphate synthetase) | 3 | 46520 | 1.04e5 | 82611 | 7421 | 5936
toy (twin of eyeless) | 1 | 87325 | 89913 | – | 1777 | 3568
CG34033 | 1 | 1.15e5 | 2.01e5 | – | 2985 | 9472
homer | 1 | 63609 | 54627 | – | 2560 | 2128
CG32091 | 1 | 51079 | 49541 | 35579 | 6210 | 3347
CG32091 | 2 | 35108 | 54665 | 67563 | 5113 | 4748
Dbp45A (DEAD box protein 45A) | 1 | 87073 | 44373 | – | 3376 | 1257
nompA (no mechanoreceptor potential A) | 1 | 1.07e5 | 55235 | – | 2948 | 4257
Ac13E (Adenylyl cyclase 13E) | 1 | 88994 | 1.80e5 | – | 1655 | 7596
S-Lap8 (Sperm-Leucylaminopeptidase 8) | 1 | 1.57e5 | 6.73e5 | 1.11e5 | 7616 | 40980
Rlb1 | 1 | 72523 | 1.11e5 | – | 2138 | 3163
Gfat2 (Glutamine:fructose-6-phosphate aminotransferase 2) | 1 | 78624 | 71027 | – | 1412 | 2000
pio (piopio) | 1 | 87096 | 81143 | – | 3276 | 3205
CG31464 | 1 | 76761 | 1.22e5 | – | 3169 | 3803
CG8654 | 1 | 76884 | 52196 | – | 3386 | 2684
Spt7 | 1 | 1.11e5 | 1.05e5 | – | 2099 | 2683
CG32119 | 1 | 7.65e5 | 4.00e5 | 1.47e5 | 6697 | 9050
vib (vibrator) | 1 | 1.10e5 | 1.39e5 | – | 4708 | 5331
Snx27 (Sorting nexin 27) | 1 | 1.73e5 | 3.17e5 | – | 6252 | 12013
Snx27 (Sorting nexin 27) | 2 | 1.02e5 | 2.19e5 | – | 3850 | 8232
Snx27 (Sorting nexin 27) | 3 | 56658 | 2.17e5 | – | 2156 | 7559
CG14739 | 1 | 91840 | 1.44e5 | – | 2333 | 4144
alpha-Est7 (alpha-Esterase-7) | 1 | 5.42e5 | 67780 | – | 2933 | 2933
CG6420 | 1 | 79200 | 1.18e5 | – | 2116 | 3888
zormin | 1 | 1.32e5 | 2.22e5 | – | 4237 | 9568
zormin | 2 | 70705 | 43988 | – | 1926 | 3158
zormin | 3 | 55778 | 49202 | – | 1720 | 3549
zormin | 4 | 75225 | 42985 | – | 1760 | 3123
zormin | 5 | 77060 | 53904 | – | 1530 | 4045
zormin | 6 | 50759 | 48348 | – | 3378 | 2725
CG18234 | 1 | 1.53e5 | – | – | 3308 | 4100
yellow-c + CIAPIN1 | 1 | 74704 | 65677 | – | 2234 | 5783
hts (hu li tai shao) | 1 | 1.23e5 | 2.62e5 | – | 3781 | 11163
CG4230 | 1 | 67996 | 98593 | – | 3384 | 4635
ena (enabled) | 1 | 66993 | 1.35e5 | – | 1872 | 5152
ena (enabled) | 2 | 99459 | 83667 | – | 5044 | 3637
CG10116 | 1 | 68121 | 77987 | – | 2931 | 3204
CG33267 | 1 | 1.20e5 | 2.88e5 | – | 3082 | 11200
CG42537 | 1 | 62576 | 1.49e5 | – | 2980 | 4483
Vm26Ac (Vitelline membrane 26Aac) | 1 | 1.53e5 | 62440 | – | 3872 | 6635
Pde11 (Phosphodiesterase 11) | 1 | 5.36e5 | 1.01e5 | – | 5417 | 5417
Pde11 (Phosphodiesterase 11) | 2 | 51686 | 43910 | – | 858 | 5561
sbr (small bristles) | 1 | 53257 | 1.51e5 | – | 1922 | 6232
sbr (small bristles) | 2 | 36390 | 82618 | – | 1211 | 4241
Hacl (2-hydroxyacyl-CoA lyase) | 1 | 1.30e5 | 90934 | – | 6123 | 4198
Cam (Calmodulin) | 1 | 1.32e5 | 68684 | – | 3592 | 5915
Cam (Calmodulin) | 2 | 1.02e5 | 48321 | – | 2877 | 3901
GstD6 (Glutathione S transferase D6) | 1 | 98885 | 76516 | – | 3533 | 2468
CG15211 | 1 | 75857 | 2.25e5 | – | 1996 | 7490
CG8326 | 1 | 78197 | 89287 | – | 2624 | 2593
CG3085 | 1 | 83384 | 51483 | – | 3419 | 2049
CG15071 | 1 | 86055 | 57602 | – | 2300 | 4096
Gmppb (GDP-mannose pyrophosphorylase B) | 1 | 1.34e5 | 71817 | – | 5403 | 2840
lncRNA:sphinx + ATPsynF | 1 | 3.64e5 | 1.35e5 | – | 14432 | 1571
Cyp6t2Psi (pseudo) | 1 | 1.81e5 | 2.02e5 | – | 4548 | 10418
CG7573 | 1 | 29229 | 54452 | 42357 | 5401 | 3643
Wdr92 (WD repeat domain 92) | 1 | 1.32e5 | – | – | 2237 | 7041
HemK2 + Snapin | 1 | 1.06e5 | 62649 | – | 4528 | 2450
HemK2 + Snapin | 2 | 1.34e5 | 94237 | – | 3008 | 2304

Reformatted: entries from further up.
Tsp42Eb + CG30160 #1 → firefly Hh reporter signal, replicate 1 = 1.48e5; firefly Hh reporter signal, replicate 2 = 2.41e5; Renilla reference signal, replicate 1 = 3595; Renilla reference signal, replicate 2 = 9850
Tsp42Eb + CG30160 #2 → firefly Hh reporter signal, replicate 1 = 1.01e5; firefly Hh reporter signal, replicate 2 = 64586; Renilla reference signal, replicate 1 = 2617; Renilla reference signal, replicate 2 = 6347
loqs (loquacious) → firefly Hh reporter signal, replicate 1 = 72264; firefly Hh reporter signal, replicate 2 = 52772; Renilla reference signal, replicate 1 = 2370; Renilla reference signal, replicate 2 = 5620
CG15147 #1 → firefly Hh reporter signal, replicate 1 = 1.20e5; firefly Hh reporter signal, replicate 2 = 6.65e5; firefly Hh reporter signal, replicate 3 = 78352; Renilla reference signal, replicate 1 = 3219; Renilla reference signal, replicate 2 = 39405
CG15147 #2 → firefly Hh reporter signal, replicate 1 = 1.02e5; firefly Hh reporter signal, replicate 2 = 49286; Renilla reference signal, replicate 1 = 2579; Renilla reference signal, replicate 2 = 4501
Prps (Phosphoribosyl pyrophosphate synthetase) #1 → firefly Hh reporter signal, replicate 1 = 1.15e5; firefly Hh reporter signal, replicate 2 = 2.49e5; Renilla reference signal, replicate 1 = 2689; Renilla reference signal, replicate 2 = 9290
Prps (Phosphoribosyl pyrophosphate synthetase) #2 → firefly Hh reporter signal, replicate 1 = 24427; firefly Hh reporter signal, replicate 2 = 59828; firefly Hh reporter signal, replicate 3 = 77153; Renilla reference signal, replicate 1 = 4648; Renilla reference signal, replicate 2 = 4538
Prps (Phosphoribosyl pyrophosphate synthetase) #3 → firefly Hh reporter signal, replicate 1 = 46520; firefly Hh reporter signal, replicate 2 = 1.04e5; firefly Hh reporter signal, replicate 3 = 82611; Renilla reference signal, replicate 1 = 7421; Renilla reference signal, replicate 2 = 5936
toy (twin of eyeless) → firefly Hh reporter signal, replicate 1 = 87325; firefly Hh reporter signal, replicate 2 = 89913; Renilla reference signal, replicate 1 = 1777; Renilla reference signal, replicate 2 = 3568
CG34033 → firefly Hh reporter signal, replicate 1 = 1.15e5; firefly Hh reporter signal, replicate 2 = 2.01e5; Renilla reference signal, replicate 1 = 2985; Renilla reference signal, replicate 2 = 9472
homer → firefly Hh reporter signal, replicate 1 = 63609; firefly Hh reporter signal, replicate 2 = 54627; Renilla reference signal, replicate 1 = 2560; Renilla reference signal, replicate 2 = 2128
CG32091 #1 → firefly Hh reporter signal, replicate 1 = 51079; firefly Hh reporter signal, replicate 2 = 49541; firefly Hh reporter signal, replicate 3 = 35579; Renilla reference signal, replicate 1 = 6210; Renilla reference signal, replicate 2 = 3347
